Experimental data as given in US11953435B2, “Zinc-responsive fluorophores” (Northwestern University, priority 2019, dated 2024).

Assay: Job plot with Zn
Type: binding
Conditions: probe (5 μM) and Zn(NO3)2 (5 μM)

Row | Structure (SMILES) | mole fraction at which fluorescence intensity reaches a maximum (Job plot)
1 | Cc1cc(C)c(C2=C3C=CC(OCCN)=[N+]3[B-](F)(F)n3c2ccc3N(CCN(Cc2ccccn2)Cc2ccccn2)Cc2ccccn2)c(C)c1 [ZincBY-3, N1-(7-(2-aminoethoxy)-5,5-difluoro-10-mesityl-5H-4λ4,5λ4-dipyrrolo[1,2-c:2′,1′-f][1,3,2]diazaborinin-3-yl)-N1,N2,N2-tris(pyridin-2-ylmethyl)ethane-1,2-diamine] | 0.5
2 | CC(=O)NCCOc1ccc2n1[B-](F)(F)[N+]1=C(N(CCN(Cc3ccccn3)Cc3ccccn3)Cc3ccccn3)C=CC1=C2c1c(C)cc(C)cc1C [ZincBY-4, N-(2-((7-((2-(bis(pyridin-2-ylmethyl)amino)ethyl)(pyridin-2-ylmethyl)amino)-5,5-difluoro-10-mesityl-5H-5λ4,6λ4-dipyrrolo[1,2-c:2′,1′-f][1,3,2]diazaborinin-3-yl)oxy)ethyl)acetamide] | 0.5
3 | Cc1cc(C)c(C2=C3C=CC(OCCN=[N+]=[N-])=[N+]3[B-](F)(F)n3c2ccc3N(CCN(Cc2ccccn2)Cc2ccccn2)Cc2ccccn2)c(C)c1 [ZincBY-2, N1-(7-(2-azidoethoxy)-5,5-difluoro-10-mesityl-5H-4λ4,5λ4-dipyrrolo[1,2-c:2′,1′-f][1,3,2]diazaborinin-3-yl)-N1,N2,N2-tris(pyridin-2-ylmethyl)ethane-1,2-diamine] | 0.5
